The results in this text go back to US20250346678A1.

The chains behind the UniProt entries cited, without tags or fusion partners. Where a name states a change or a piece, a line headed by the entry shows the natural chain unless it says otherwise.
UniProt Q9NZQ7: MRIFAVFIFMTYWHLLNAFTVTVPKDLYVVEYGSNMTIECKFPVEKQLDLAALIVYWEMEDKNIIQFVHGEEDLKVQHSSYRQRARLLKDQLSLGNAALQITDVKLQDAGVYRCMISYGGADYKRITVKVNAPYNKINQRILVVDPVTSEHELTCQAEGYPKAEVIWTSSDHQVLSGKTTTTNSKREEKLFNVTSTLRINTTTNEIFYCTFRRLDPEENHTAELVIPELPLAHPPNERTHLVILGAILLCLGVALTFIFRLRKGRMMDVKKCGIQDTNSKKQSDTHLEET

This assay concerns the target human PD-L1 IgG1 Fc chimera (human) (UniProt Q9NZQ7). Briefly: phage display selection and direct ELISA screening. (In general: An ELISA detects its analyte on a solid surface through an enzyme-linked reagent.)

These are yes or no findings as the source states them, for the method shown. Some results given as binding are weak or reduced against the parent protein; the word gives no strength.

B1: OM-PDL1-32 (Fab, V domains shown)
VH: QVQLVQSGAKVKKPGSSVKVSCKASGGTFSSYAISWVRQAPGQGLEWMGRIIPILGIANYAQKFQGRVTITADKSTSTAYMELSSLRSEDTAVYYCARVVPGYSYGPFDYWGQGTTVTVSS
VL: QSALTQPASVSGSPGQSITISCTGTSNDVGSYNSVSWYQQHPGKAPKLVIYEVANRPSGVPDRFSGSKSGNTASLTISGLQAEDEADYYCSSYTSSSTLVFGGGTKLTVLG
B1: the binding entry is listed as “binds”.
